Results are given in words; binding and its absence hold for the method and conditions named. Some entries that bind do so weakly or less than the wild type.
T1: tetraspanin CD63 on exosomes in mouse bronchoalveolar lavage fluid (mouse) (UniProt P41731)
T1 sequence (looked up): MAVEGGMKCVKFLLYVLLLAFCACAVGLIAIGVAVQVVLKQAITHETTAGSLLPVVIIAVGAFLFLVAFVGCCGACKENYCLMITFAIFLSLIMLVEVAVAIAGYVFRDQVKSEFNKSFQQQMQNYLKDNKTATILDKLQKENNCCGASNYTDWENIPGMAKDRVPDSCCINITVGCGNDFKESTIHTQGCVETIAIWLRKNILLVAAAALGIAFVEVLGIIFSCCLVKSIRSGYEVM

T2: tetraspanin CD9 on exosomes in mouse bronchoalveolar lavage fluid (mouse) (UniProt P40240)
T2 sequence (looked up): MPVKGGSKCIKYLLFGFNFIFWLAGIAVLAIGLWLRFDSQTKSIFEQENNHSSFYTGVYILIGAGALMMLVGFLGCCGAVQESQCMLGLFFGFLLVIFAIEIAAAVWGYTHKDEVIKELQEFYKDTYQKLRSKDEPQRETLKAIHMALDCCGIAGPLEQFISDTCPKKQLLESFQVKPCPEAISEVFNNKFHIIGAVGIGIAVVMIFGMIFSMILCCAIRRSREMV


Experiments:
[1] = target: T1, tetraspanin CD63 on exosomes in mouse bronchoalveolar lavage fluid (mouse); assay: electrical impedance spectroscopy, phase angle against frequency, exosomes plus nanoplatform in HEPES buffer
[2] = target: T1, tetraspanin CD63 on exosomes in mouse bronchoalveolar lavage fluid (mouse); assay: dynamic light scattering, hydrodynamic diameter against time, nanoplatform mixed with exosomes of mouse BALF in HEPES buffer at 298 K
[3] = target: T2, tetraspanin CD9 on exosomes in mouse bronchoalveolar lavage fluid (mouse); assay: electrical impedance spectroscopy, phase angle against frequency, exosomes plus nanoplatform in HEPES buffer
[4] = target: T2, tetraspanin CD9 on exosomes in mouse bronchoalveolar lavage fluid (mouse); assay: dynamic light scattering, hydrodynamic diameter against time, nanoplatform mixed with exosomes of mouse BALF in HEPES buffer at 298 K

binding [1] | binding [2] | binding [3] | binding [4] | Binder
binds | binds |  |  | LNNHTASILNRMQANF (bound to Fe/Fe3O4 nanoparticle, 75 +/-5 peptide aptamers per nanoplatform) [Fe/Fe3O4-nanoplatform bearing peptide aptamers for binding of the tetraspanin CD63 (…)]
 |  | binds | binds | VQEFYKDTYNKLKTK (bound to Fe/Fe3O4 nanoparticle, 75 +/-5 peptide aptamers per nanoplatform) [Fe/Fe3O4-nanoplatform bearing peptide aptamers for binding of the tetraspanin CD9 (…)]
